# Test results: the supplement of paper PMC10849652
# Protein sequences, listed by entry. Tags and fused reporters are not part of them. Lines headed by an entry give the natural chain unless they say otherwise; changes in a name come on top.
# UniProt Q8NBI5: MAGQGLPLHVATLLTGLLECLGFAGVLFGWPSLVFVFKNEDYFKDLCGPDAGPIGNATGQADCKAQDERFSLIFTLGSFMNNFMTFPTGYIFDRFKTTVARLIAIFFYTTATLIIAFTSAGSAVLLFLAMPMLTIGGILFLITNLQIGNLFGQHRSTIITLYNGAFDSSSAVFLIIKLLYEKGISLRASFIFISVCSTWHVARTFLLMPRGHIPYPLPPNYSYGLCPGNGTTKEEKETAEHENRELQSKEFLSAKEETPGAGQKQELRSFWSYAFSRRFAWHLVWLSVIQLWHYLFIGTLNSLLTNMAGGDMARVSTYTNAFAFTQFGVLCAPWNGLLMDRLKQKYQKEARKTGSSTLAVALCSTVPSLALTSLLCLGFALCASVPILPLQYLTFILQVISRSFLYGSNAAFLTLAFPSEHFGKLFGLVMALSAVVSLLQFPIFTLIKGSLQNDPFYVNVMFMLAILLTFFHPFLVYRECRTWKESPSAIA
# UniProt P11169: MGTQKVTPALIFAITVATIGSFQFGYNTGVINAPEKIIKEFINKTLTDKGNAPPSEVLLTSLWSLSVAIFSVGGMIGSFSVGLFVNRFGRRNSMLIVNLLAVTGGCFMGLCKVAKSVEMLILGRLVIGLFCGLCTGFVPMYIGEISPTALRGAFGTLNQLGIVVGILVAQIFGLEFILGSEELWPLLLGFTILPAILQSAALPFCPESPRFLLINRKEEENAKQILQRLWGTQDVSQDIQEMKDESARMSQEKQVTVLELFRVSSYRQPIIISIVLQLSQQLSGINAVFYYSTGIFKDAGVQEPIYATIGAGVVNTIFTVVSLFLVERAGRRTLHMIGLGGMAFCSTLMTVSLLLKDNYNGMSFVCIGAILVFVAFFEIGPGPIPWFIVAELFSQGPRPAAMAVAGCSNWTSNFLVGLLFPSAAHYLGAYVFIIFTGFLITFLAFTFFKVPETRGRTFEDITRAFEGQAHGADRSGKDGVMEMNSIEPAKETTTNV
# UniProt O43826: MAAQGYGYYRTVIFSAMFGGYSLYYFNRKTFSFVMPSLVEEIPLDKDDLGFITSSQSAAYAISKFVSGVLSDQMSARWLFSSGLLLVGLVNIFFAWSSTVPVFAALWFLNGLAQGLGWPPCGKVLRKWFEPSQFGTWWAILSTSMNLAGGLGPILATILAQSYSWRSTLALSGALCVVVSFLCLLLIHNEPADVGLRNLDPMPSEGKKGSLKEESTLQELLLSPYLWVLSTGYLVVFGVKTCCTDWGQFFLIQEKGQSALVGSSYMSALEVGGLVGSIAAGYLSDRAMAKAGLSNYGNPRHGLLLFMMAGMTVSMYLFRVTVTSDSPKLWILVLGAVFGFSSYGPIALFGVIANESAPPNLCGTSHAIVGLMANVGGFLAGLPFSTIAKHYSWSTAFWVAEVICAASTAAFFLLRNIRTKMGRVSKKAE
# UniProt Q6PML9: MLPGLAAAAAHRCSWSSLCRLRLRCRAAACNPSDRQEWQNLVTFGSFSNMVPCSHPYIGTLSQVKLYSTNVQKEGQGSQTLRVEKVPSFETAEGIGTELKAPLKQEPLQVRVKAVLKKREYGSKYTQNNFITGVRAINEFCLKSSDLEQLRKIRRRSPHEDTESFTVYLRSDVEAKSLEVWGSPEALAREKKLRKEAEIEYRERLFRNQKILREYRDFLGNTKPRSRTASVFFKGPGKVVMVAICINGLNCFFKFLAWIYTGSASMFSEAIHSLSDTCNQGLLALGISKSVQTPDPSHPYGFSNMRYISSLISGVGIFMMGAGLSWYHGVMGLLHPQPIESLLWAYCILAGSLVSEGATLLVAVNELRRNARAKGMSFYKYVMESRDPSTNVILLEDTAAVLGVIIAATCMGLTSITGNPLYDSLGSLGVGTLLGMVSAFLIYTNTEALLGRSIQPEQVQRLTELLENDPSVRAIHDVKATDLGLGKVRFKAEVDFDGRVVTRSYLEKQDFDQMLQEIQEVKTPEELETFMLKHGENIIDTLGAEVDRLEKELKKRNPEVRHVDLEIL
# UniProt P16260: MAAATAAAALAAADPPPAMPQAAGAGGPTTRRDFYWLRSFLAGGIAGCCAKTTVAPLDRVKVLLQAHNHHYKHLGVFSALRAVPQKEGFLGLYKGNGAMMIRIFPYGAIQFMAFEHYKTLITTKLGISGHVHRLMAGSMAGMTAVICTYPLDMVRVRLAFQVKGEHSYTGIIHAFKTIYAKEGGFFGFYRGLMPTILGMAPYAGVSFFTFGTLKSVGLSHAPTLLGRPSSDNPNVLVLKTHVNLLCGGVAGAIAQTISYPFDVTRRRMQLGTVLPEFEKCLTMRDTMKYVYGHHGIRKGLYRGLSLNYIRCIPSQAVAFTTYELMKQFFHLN
# UniProt Q96H78: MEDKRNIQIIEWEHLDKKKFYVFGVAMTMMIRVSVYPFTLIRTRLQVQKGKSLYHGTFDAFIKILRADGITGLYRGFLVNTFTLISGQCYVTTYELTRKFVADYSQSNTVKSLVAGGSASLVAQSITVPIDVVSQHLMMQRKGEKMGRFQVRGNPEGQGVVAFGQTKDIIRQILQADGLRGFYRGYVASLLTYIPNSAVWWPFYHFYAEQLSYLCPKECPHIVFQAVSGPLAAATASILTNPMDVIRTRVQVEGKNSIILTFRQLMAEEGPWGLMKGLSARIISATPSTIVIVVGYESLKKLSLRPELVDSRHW
# UniProt Q6NXT4: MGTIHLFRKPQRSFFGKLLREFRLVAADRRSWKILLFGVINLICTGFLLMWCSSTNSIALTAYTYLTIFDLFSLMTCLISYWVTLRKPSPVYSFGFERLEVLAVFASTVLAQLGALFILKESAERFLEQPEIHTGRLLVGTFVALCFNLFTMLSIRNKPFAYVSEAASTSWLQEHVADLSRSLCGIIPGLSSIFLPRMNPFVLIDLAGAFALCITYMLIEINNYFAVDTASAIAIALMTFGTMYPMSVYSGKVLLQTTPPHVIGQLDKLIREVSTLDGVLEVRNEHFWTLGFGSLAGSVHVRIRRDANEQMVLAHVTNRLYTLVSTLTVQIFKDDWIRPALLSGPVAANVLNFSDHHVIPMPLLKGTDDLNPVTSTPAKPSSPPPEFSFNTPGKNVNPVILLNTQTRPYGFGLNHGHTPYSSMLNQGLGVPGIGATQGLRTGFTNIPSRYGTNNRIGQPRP
# UniProt Q6NT16: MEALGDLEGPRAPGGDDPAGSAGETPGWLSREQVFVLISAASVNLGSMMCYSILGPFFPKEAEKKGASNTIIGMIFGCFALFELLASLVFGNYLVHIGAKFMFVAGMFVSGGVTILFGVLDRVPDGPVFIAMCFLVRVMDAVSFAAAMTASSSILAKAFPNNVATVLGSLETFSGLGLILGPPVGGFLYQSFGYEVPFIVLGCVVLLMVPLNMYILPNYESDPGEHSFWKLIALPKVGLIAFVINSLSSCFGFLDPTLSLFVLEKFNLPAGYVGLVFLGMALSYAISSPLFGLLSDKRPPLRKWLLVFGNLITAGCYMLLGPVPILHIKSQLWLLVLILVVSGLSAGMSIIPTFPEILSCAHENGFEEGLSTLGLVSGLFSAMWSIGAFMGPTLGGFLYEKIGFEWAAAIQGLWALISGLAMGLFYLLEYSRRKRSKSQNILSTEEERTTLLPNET
# UniProt Q9NP59: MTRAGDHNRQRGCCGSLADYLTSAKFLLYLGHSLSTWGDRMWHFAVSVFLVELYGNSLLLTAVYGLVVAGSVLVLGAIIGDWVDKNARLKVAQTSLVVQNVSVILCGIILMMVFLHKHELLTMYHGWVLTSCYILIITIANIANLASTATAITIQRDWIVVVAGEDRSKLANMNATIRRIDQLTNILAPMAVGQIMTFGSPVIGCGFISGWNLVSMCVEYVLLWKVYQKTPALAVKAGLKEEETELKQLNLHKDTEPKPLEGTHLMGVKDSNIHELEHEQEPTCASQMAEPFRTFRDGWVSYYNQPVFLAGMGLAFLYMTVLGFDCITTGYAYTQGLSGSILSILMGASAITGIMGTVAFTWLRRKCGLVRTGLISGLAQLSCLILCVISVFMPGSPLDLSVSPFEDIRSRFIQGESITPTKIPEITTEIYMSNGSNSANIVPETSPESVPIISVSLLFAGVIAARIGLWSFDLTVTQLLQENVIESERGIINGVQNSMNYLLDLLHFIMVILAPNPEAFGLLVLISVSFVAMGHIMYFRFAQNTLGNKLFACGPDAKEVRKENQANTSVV
# UniProt Q9Y289: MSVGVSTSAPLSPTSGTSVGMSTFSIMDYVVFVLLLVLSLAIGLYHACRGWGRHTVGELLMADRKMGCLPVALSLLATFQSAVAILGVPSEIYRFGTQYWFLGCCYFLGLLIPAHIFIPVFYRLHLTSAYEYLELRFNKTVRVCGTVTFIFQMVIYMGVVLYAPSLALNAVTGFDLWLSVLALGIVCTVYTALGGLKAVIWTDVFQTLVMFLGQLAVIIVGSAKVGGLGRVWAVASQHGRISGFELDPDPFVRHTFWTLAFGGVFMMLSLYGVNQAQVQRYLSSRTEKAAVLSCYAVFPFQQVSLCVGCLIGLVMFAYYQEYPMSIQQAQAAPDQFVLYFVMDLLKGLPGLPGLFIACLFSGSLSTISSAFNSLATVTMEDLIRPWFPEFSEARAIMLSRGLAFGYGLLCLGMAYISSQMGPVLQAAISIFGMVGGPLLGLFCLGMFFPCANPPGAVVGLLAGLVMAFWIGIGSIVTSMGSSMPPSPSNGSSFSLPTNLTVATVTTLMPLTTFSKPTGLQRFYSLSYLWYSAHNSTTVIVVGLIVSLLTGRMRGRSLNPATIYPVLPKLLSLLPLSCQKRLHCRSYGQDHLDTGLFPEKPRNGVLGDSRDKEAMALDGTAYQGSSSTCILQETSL
# UniProt Q8WUM9: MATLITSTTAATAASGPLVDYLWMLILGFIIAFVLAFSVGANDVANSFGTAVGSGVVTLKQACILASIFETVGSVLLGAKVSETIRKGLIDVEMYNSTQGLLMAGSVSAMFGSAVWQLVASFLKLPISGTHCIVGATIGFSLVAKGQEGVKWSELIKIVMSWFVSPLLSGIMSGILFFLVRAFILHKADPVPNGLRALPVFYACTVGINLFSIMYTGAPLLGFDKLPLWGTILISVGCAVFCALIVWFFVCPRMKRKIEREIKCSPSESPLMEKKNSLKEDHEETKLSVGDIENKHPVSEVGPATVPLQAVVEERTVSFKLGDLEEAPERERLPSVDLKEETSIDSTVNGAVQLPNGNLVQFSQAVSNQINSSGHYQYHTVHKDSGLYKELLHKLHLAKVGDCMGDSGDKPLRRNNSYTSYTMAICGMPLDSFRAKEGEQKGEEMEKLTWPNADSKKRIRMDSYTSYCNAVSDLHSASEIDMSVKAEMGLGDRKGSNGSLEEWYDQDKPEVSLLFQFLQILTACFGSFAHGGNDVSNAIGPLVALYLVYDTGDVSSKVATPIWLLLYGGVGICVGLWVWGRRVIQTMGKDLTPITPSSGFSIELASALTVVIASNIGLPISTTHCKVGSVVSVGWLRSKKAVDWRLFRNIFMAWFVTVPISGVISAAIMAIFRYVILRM
# UniProt O00400: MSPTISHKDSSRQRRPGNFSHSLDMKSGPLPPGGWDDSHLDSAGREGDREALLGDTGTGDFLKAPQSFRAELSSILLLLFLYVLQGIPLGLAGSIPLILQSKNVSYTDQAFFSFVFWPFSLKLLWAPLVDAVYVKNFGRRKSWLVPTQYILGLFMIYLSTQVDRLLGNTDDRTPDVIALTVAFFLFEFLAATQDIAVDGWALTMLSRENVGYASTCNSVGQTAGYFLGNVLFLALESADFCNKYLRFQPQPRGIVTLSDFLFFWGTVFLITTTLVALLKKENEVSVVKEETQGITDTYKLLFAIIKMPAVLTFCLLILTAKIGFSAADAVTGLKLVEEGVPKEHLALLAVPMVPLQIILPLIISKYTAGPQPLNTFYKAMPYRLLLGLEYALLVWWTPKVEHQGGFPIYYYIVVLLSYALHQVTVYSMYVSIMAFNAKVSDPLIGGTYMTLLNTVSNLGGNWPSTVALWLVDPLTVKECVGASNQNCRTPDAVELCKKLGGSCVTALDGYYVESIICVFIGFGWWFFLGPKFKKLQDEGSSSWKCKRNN
# UniProt Q15043: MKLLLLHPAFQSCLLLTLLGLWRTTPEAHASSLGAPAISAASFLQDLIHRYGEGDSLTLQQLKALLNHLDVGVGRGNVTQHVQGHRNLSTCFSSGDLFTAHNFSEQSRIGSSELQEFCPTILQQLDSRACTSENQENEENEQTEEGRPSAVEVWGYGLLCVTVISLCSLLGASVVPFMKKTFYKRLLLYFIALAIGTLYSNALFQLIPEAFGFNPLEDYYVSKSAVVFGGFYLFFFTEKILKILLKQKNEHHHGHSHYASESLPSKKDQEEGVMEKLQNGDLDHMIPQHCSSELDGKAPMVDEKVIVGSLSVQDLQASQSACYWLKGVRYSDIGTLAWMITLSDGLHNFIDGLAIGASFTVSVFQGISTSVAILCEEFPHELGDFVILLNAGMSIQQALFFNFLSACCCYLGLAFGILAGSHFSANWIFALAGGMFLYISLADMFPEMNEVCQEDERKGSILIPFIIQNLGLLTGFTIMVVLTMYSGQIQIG
# This is one part of the list.
# Legend:
# Assay in all cases: log2 fold change, soluble protein after heating vs DMSO (PISA); higher = thermal stabilisation; K562 cells, 10 uM, 30 min; active = over 0.2 and 3.5 SD of the protein, either way, in both replicates (recomputed)
# [1] = compound: CS(=O)(=O)c1ccc(-c2cnc(N)c(C(=O)Nc3ccccc3)n2)cc1
# Procedure, shortened: (§1)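 K562 cells at 2×10^6 cells/mL were treated for 30 min with 10 μM compound, and aliquots were heated for 3 min over 48°C-58°C before pooling. Extraction used PBS with 0.5% NP-40 at 4°C, and soluble protein was the supernatant after 21,000xg for 90 min, measured by TMTpro 16plex LC-MS/MS with channel sums equalised. Thermal stability values, relative to control samples and from duplicates, are log2 fold changes.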
# [2] = compound: C[C@@H](Oc1cc(-c2cnn(C3CCNCC3)c2)cnc1N)c1c(Cl)ccc(F)c1Cl [crizotinib]
# Procedure, shortened: as §1
# [3] = compound: C[C@@H]1COCCN1C2=NC(=NC(=C2)C3(CC3)S(=O)(=O)C)C4=C5C=CNC5=CC=C4
# Procedure, shortened: as §1
# [4] = compound: C[C@H](C1=CC=C(C=C1)C(=O)NC2=C3C=CNC3=NC=C2)N
# Procedure, shortened: as §1
# [5] = compound: C[C@H](Nc1ncnc2nc[nH]c12)c1cc2cccc(Cl)c2c(=O)n1-c1ccccc1 [duvelisib]
# Procedure, shortened: as §1
# [6] = compound: Cc1cc(Nc2cc(CN3CCOCC3)c3nc(C)c(Cc4ccc(Cl)cc4F)n3n2)n[nH]1 [gandotinib]
# Procedure, shortened: as §1
# [7] = compound: Cc1cc(Nc2cc(N3CCN(C)CC3)nc(Sc3ccc(NC(=O)C4CC4)cc3)n2)n[nH]1 [tozasertib]
# Procedure, shortened: as §1
# [8] = compound: Cc1cc(SCc2sc(-c3ccc(C(F)(F)F)cc3)nc2C)ccc1OCC(=O)O
# Procedure, shortened: as §1
# [9] = compound: Cc1ccc(-n2nc(C(C)(C)C)cc2NC(=O)Nc2ccc(OCCN3CCOCC3)c3ccccc23)cc1 [doramapimod]
# Procedure, shortened: as §1
# [10] = compound: Cc1ccc(C(=O)N(CCCN)[C@@H](c2nc3cc(Cl)ccc3c(=O)n2Cc2ccccc2)C(C)C)cc1 [ispinesib]
# Procedure, shortened: as §1
# [11] = compound: Cc1ccc(NC(=O)c2ccc(CN3CC[C@H](N(C)C)C3)c(C(F)(F)F)c2)cc1Nc1nccc(-c2cncnc2)n1 [bafetinib]
# Procedure, shortened: as §1
# [12] = compound: Cc1cccc(CC(=O)N2CCc3c2ccc(-c2cn(C)c4ncnc(N)c24)c3F)n1
# Procedure, shortened: as §1
# [13] = compound: Cc1cn(-c2cc(NC(=O)c3ccc(C)c(Nc4nccc(-c5cccnc5)n4)c3)cc(C(F)(F)F)c2)cn1 [nilotinib]
# Procedure, shortened: as §1
# [14] = compound: Cc1nc(Nc2n[nH]c3c2CN(C(=O)N[C@H](CN(C)C)c2ccccc2)C3(C)C)c2sccc2n1
# Procedure, shortened: as §1
# [15] = compound: Cc1nc(Nc2ncc(C(=O)Nc3c(C)cccc3Cl)s2)cc(N2CCN(CCO)CC2)n1 [dasatinib]
# Procedure, shortened: as §1
# [16] = compound: Cc1ncc(-c2ccnc(Nc3ccc(S(C)(=O)=O)cc3)n2)n1C(C)C
# Procedure, shortened: as §1
# [17] = compound: Cn1cc(-c2ccc3c(c2)CCN3C(=O)Cc2cccc(C(F)(F)F)c2)c2c(N)ncnc21
# Procedure, shortened: as §1
# [18] = compound: Cn1cc(-c2ccc3nnc(C(F)(F)c4ccc5ncccc5c4)n3n2)cn1
# Procedure, shortened: as §1
# [19] = compound: Cn1cncc1[C@@](N)(c1ccc(Cl)cc1)c1ccc2c(c1)c(-c1cccc(Cl)c1)cc(=O)n2C [tipifarnib]
# Procedure, shortened: as §1
# [20] = compound: FC(F)(F)c1ccc(/C=C/c2nc(COc3ccc(CCCCn4ccnn4)cc3)co2)cc1 [mubritinib]
# Procedure, shortened: as §1
Target,log2 fold change [1],log2 fold change [2],log2 fold change [3],log2 fold change [4],log2 fold change [5],log2 fold change [6],log2 fold change [7],log2 fold change [8],log2 fold change [9],log2 fold change [10],log2 fold change [11],log2 fold change [12],log2 fold change [13],log2 fold change [14],log2 fold change [15],log2 fold change [16],log2 fold change [17],log2 fold change [18],log2 fold change [19],log2 fold change [20]
SLC43A3 isoform 2 (UniProt Q8NBI5),inactive: 0.028,inactive: 0.115,inactive: 0.063,inactive: -0.079,inactive: 0.069,inactive: -0.063,inactive: -0.07,inactive: -0.093,inactive: -0.016,inactive: 0.027,inactive: 0.033,inactive: -0.016,inactive: 0.096,inactive: 0.004,inactive: 0.019,inactive: 0.016,inactive: 0.023,inactive: -0.026,inactive: 0.001,inactive: 0.04
SLC2A3 (UniProt P11169),inactive: -0.012,inactive: 0.06,inactive: 0.033,inactive: -0.15,inactive: 0.025,inactive: -0.075,inactive: -0.053,inactive: -0.052,inactive: -0.034,inactive: 0.093,inactive: 0.058,inactive: -0.044,inactive: 0.054,inactive: 0.015,inactive: 0.021,inactive: -0.011,inactive: 0.019,inactive: 0.048,inactive: 0.057,inactive: 0.053
SLC37A4 isoform 2 (UniProt O43826),inactive: 0.011,inactive: 0.064,inactive: 0.016,inactive: -0.044,inactive: 0.014,inactive: 0.021,inactive: -0.028,inactive: -0.032,inactive: 0.016,inactive: -0.061,inactive: -0.05,inactive: -0.044,inactive: -0.044,inactive: 0.011,inactive: 0.068,inactive: -0.051,inactive: 0.029,inactive: 0.009,inactive: -0.018,inactive: 0.058
SLC5A3 (UniProt P53794),inactive: 0.051,inactive: 0.109,inactive: 0.086,inactive: -0.133,inactive: 0.05,inactive: 0.001,inactive: -0.041,inactive: -0.054,inactive: 0.002,inactive: 0.106,inactive: 0.039,inactive: -0.02,inactive: 0.07,inactive: 0.014,inactive: 0.057,inactive: -0.02,inactive: 0.04,inactive: -0.083,inactive: 0.026,inactive: 0.042
SLC30A9 (UniProt Q6PML9),inactive: 0.099,inactive: 0.016,inactive: 0.057,inactive: -0.094,inactive: 0.108,inactive: 0.048,inactive: -0.028,inactive: -0.015,inactive: -0.028,inactive: -0.092,inactive: -0.023,inactive: -0.023,inactive: 0.012,inactive: -0.02,inactive: -0.129,inactive: -0.031,inactive: 0.063,inactive: -0.106,inactive: 0.02,inactive: -0.02
SLC25A12 (UniProt O75746),inactive: 0.035,inactive: 0.069,inactive: 0.01,inactive: -0.037,inactive: 0.021,inactive: -0.036,inactive: -0.035,inactive: -0.037,inactive: -0.015,inactive: 0.023,inactive: -0.045,inactive: -0.021,inactive: -0.028,inactive: 0.028,inactive: 0.021,inactive: -0.03,inactive: 0.007,inactive: 0.013,inactive: 0.042,inactive: -0.063
SLC25A16 (UniProt P16260),inactive: 0.075,inactive: 0.062,inactive: 0.19,inactive: 0.043,inactive: 0.179,inactive: -0.219,inactive: -0.057,inactive: -0.03,inactive: -0.026,inactive: 0.005,inactive: 0.04,inactive: -0.083,inactive: 0.095,inactive: -0.039,inactive: -0.012,inactive: -0.006,inactive: -0.101,inactive: -0.074,inactive: 0.035,inactive: -0.058
SLC25A44 (UniProt Q96H78),inactive: -0.006,inactive: 0.066,inactive: -0.044,inactive: -0.01,inactive: 0.008,inactive: -0.068,inactive: -0.024,inactive: 0.017,inactive: -0.005,,inactive: 0.029,inactive: 0.048,inactive: -0.037,inactive: -0.028,inactive: 0.05,inactive: 0.026,inactive: 0.086,,inactive: 0.032,inactive: 0.036
SLC30A6 isoform 2 (UniProt Q6NXT4),inactive: 0.009,inactive: 0.09,inactive: -0.088,inactive: 0.133,inactive: 0.069,inactive: -0.294,inactive: -0.036,inactive: 0.046,inactive: -0.052,inactive: -0.102,inactive: -0.119,inactive: -0.038,inactive: -0.091,inactive: 0.05,inactive: 0.005,inactive: -0.023,inactive: 0.015,inactive: -0.014,inactive: -0.015,inactive: 0.026
SLC18B1 (UniProt Q6NT16),inactive: 0.027,active: -0.404,inactive: 0.06,inactive: -0.034,,inactive: 0.092,,inactive: -0.07,inactive: -0.002,inactive: -0.193,inactive: -0.071,inactive: 0,inactive: -0.024,inactive: 0.04,inactive: 0.063,inactive: -0.016,inactive: 0.034,inactive: 0.198,inactive: -0.029,inactive: -0.018
SLC40A1 (UniProt Q9NP59),inactive: 0.06,inactive: 0.088,inactive: 0.095,inactive: -0.085,inactive: 0.093,inactive: -0.11,inactive: -0.095,inactive: -0.067,inactive: -0.073,inactive: -0.025,inactive: -0.071,inactive: -0.066,inactive: 0.046,inactive: -0.001,inactive: 0.059,inactive: 0.1,inactive: -0.012,inactive: -0.162,inactive: -0.029,inactive: 0.108
SLC5A6 (UniProt Q9Y289),inactive: 0.021,inactive: 0.065,inactive: 0.068,inactive: -0.116,inactive: 0.066,inactive: -0.054,inactive: -0.054,inactive: -0.078,inactive: 0.032,inactive: 0.107,inactive: 0.09,inactive: -0.004,inactive: 0.026,inactive: -0.015,inactive: 0.123,inactive: -0.005,inactive: 0.112,inactive: -0.028,inactive: 0.009,inactive: 0.025
SLC20A1 (UniProt Q8WUM9),inactive: 0.044,inactive: 0.015,inactive: -0.037,inactive: -0.013,inactive: 0.145,inactive: -0.038,inactive: -0.085,inactive: -0.018,inactive: -0.003,inactive: -0.057,inactive: -0.017,inactive: -0.065,inactive: -0.004,inactive: -0.058,inactive: 0.032,inactive: 0.01,inactive: -0.004,inactive: -0.035,inactive: 0.001,inactive: 0.035
SLC33A1 (UniProt O00400),inactive: -0.008,inactive: 0.062,inactive: 0.086,inactive: -0.095,inactive: 0.05,inactive: -0.025,inactive: -0.019,inactive: -0.002,inactive: -0.055,inactive: 0.121,inactive: -0.003,inactive: -0.051,inactive: 0.031,inactive: 0.022,inactive: 0.045,inactive: -0.067,inactive: 0.001,inactive: -0.098,inactive: 0.013,inactive: -0.012
SLC25A25 isoform 3 (UniProt Q6KCM7),inactive: -0.027,inactive: 0.007,inactive: 0.001,inactive: -0.028,inactive: 0.023,inactive: -0.059,inactive: -0.01,inactive: -0.02,inactive: 0.004,inactive: -0.004,inactive: -0.022,inactive: -0.02,inactive: -0.009,inactive: 0.024,inactive: 0.018,inactive: -0.016,inactive: 0.063,inactive: -0.008,inactive: 0.006,inactive: 0.011
SLC39A14 (UniProt Q15043),inactive: 0.047,inactive: 0.014,inactive: -0.064,inactive: -0.024,inactive: 0.058,inactive: 0.024,inactive: -0.064,inactive: -0.037,inactive: -0.016,inactive: -0.045,inactive: -0.036,inactive: -0.046,inactive: 0.033,inactive: -0.001,inactive: 0.239,inactive: 0.011,inactive: 0.061,inactive: -0.001,inactive: 0.027,inactive: 0.043

# Another view of part of the listing above.
Target	log2 fold change [1]	log2 fold change [2]	log2 fold change [3]	log2 fold change [4]	log2 fold change [5]	log2 fold change [6]	log2 fold change [7]	log2 fold change [8]	log2 fold change [9]	log2 fold change [10]	log2 fold change [11]	log2 fold change [12]	log2 fold change [13]	log2 fold change [14]	log2 fold change [15]	log2 fold change [16]	log2 fold change [17]	log2 fold change [18]	log2 fold change [19]	log2 fold change [20]
SLC5A6 (UniProt Q9Y289)	inactive: 0.021	inactive: 0.065	inactive: 0.068	inactive: -0.116	inactive: 0.066	inactive: -0.054	inactive: -0.054	inactive: -0.078	inactive: 0.032	inactive: 0.107	inactive: 0.09	inactive: -0.004	inactive: 0.026	inactive: -0.015	inactive: 0.123	inactive: -0.005	inactive: 0.112	inactive: -0.028	inactive: 0.009	inactive: 0.025
SLC20A1 (UniProt Q8WUM9)	inactive: 0.044	inactive: 0.015	inactive: -0.037	inactive: -0.013	inactive: 0.145	inactive: -0.038	inactive: -0.085	inactive: -0.018	inactive: -0.003	inactive: -0.057	inactive: -0.017	inactive: -0.065	inactive: -0.004	inactive: -0.058	inactive: 0.032	inactive: 0.01	inactive: -0.004	inactive: -0.035	inactive: 0.001	inactive: 0.035
